PubChem BioAssay AID493246, Drosophila RNAi Screening Center | 2011
Purpose: 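Identify essential fly genes by loss of cell viability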 (primary screen). Cells: Drosophila Kc and S2R+ cells. Reagents: long dsRNA against Drosophila genes. Read-out: 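Cell number per well after knock-down, printed as raw plate values; calls were based on per-plate z-scores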. Scale: Kc cell number and S2R+ cell number: higher = more cells remaining. Hit rule: 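Active when the per-plate z-score of cell number is 3 or more in the direction of fewer cells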.
The screen tested about 21,000 reagents; shown is a random part of those that have a named target and a result. Over the whole deposit, 429 (2%) got an active call. 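Values are raw and not normalised between plates; calls rest on per-plate z-scores that were not deposited.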 Reagent sequences are not shown. Not stated in the record: the amount of reagent, the time to read-out.

gene	DRSC id	Kc cell number, rep 1	Kc cell number, rep 2	S2R+ cell number, rep 1	S2R+ cell number, rep 2	Call
nsl1 (non-specific lethal 1)	DRSC15625	1.16e6	1.27e6	9.33e5	1.03e6	inactive
Hand	DRSC02656	1.53e6	1.52e6	1.15e6	1.30e6	inactive
Grip71	DRSC02042	1.59e6	1.76e6	1.30e6	3.82e5	inactive
Cep290 (Centrosomal protein 290kDa)	DRSC08359	1.52e6	1.43e6	1.09e6	1.42e6	inactive
Nnf1a	DRSC06394	1.61e6	1.42e6	1.04e6	1.24e6	inactive
PH4alphaMP (prolyl-4-hydroxylase-alpha MP)	DRSC17031	1.41e6	1.43e6	9.69e5	1.04e6	inactive
Tengl1 (Testis EndoG-Like 1)	DRSC00481	1.50e6	1.51e6	1.02e6	1.15e6	inactive
Rpn13R (Regulatory particle non-ATPase 13-related)	DRSC18404	1.53e6	1.57e6	1.12e6	1.34e6	inactive
Osi18 (Osiris 18)	DRSC12181	1.64e6	1.83e6	1.17e6	1.26e6	inactive
Pask (PAS kinase)	DRSC04337	1.31e6	1.35e6	1.14e6	1.13e6	inactive
Svil (Supervillin)	DRSC07981	1.54e6	1.63e6	1.00e6	1.15e6	inactive
Svil (Supervillin)	DRSC08296	1.43e6	1.49e6	1.30e6	1.37e6	inactive
Svil (Supervillin)	DRSC08332	1.35e6	1.31e6	9.70e5	1.21e6	inactive
Svil (Supervillin)	DRSC08333	8.16e5	9.93e5	4.80e5	5.68e5	active
Svil (Supervillin)	DRSC08494	1.52e6	1.39e6	1.02e6	1.33e6	inactive
Syngr (Synaptogyrin)	DRSC06003	1.65e6	1.68e6	1.24e6	1.39e6	inactive
CG17985	DRSC06702	1.64e6	1.69e6	1.36e6	1.52e6	inactive
nompA (no mechanoreceptor potential A)	DRSC06329	1.55e6	1.52e6	1.18e6	1.33e6	inactive

In a second layout: results already given.
gene,DRSC id,"Kc cell number, rep 1","Kc cell number, rep 2","S2R+ cell number, rep 1","S2R+ cell number, rep 2",Call
Pask (PAS kinase),DRSC04337,1.31e6,1.35e6,1.14e6,1.13e6,inactive
Svil (Supervillin),DRSC07981,1.54e6,1.63e6,1.00e6,1.15e6,inactive
Svil (Supervillin),DRSC08296,1.43e6,1.49e6,1.30e6,1.37e6,inactive
Svil (Supervillin),DRSC08332,1.35e6,1.31e6,9.70e5,1.21e6,inactive
Svil (Supervillin),DRSC08333,8.16e5,9.93e5,4.80e5,5.68e5,active

The list goes on:
gene	DRSC id	Kc cell number, rep 1	Kc cell number, rep 2	S2R+ cell number, rep 1	S2R+ cell number, rep 2	Call
CG42286 (retired record)	DRSC14357	1.63e6	1.72e6	1.06e6	1.16e6	inactive
Pex10 (Peroxin 10)	DRSC08599	1.39e6	1.59e6	1.04e6	1.19e6	inactive
ems (empty spiracles)	DRSC16941	1.23e6	1.29e6	1.22e6	1.37e6	inactive
alphaTub67C (alpha-Tubulin at 67C)	DRSC11321	1.60e6	1.89e6	9.06e5	1.06e6	inactive
ova (ovaries absent)	DRSC02879	1.40e6	1.43e6	1.17e6	1.31e6	inactive
tapas	DRSC05950	1.28e6	1.35e6	1.18e6	1.21e6	inactive
CG4476	DRSC10424	1.61e6	1.57e6	1.32e6	8.92e5	inactive
CG5510	DRSC15823	1.34e6	1.38e6	9.83e5	1.05e6	inactive
HERC2 (HECT and RLD domain containing protein 2)	DRSC20566	1.45e6	1.51e6	1.02e6	1.13e6	inactive
nkt (noktochor)	DRSC10144	1.29e6	1.30e6	1.30e6	1.36e6	inactive
CG32830 (retired record)	DRSC01162	1.36e6	1.38e6	6.55e5	7.65e5	active
CG11898	DRSC14432	1.49e6	1.48e6	1.04e6	1.13e6	inactive
CG10947	DRSC02111	1.36e6	1.43e6	1.31e6	1.28e6	inactive
Ptx1	DRSC16804	1.53e6	1.56e6	1.03e6	1.19e6	inactive
CG13947	DRSC00365	1.72e6	1.77e6	1.04e6	1.22e6	inactive
Cyp318a1 (Cytochrome P450 318a1)	DRSC19784	1.57e6	1.50e6	1.04e6	1.18e6	inactive
CR30029 (pseudo)	DRSC06724	1.58e6	1.51e6	1.21e6	1.28e6	inactive
Alp9 (Alkaline phosphatase 9)	DRSC10486	1.41e6	1.45e6	1.25e6	9.77e5	inactive
CG14104	DRSC10106	1.30e6	1.25e6	1.36e6	1.43e6	inactive
CG1907	DRSC15399	5.38e5		7.94e5		inactive
CG13058	DRSC09941	1.57e6	1.59e6	1.21e6	1.33e6	inactive
viaf (viral IAP-associated factor)	DRSC10326	1.39e6	1.42e6	1.28e6	1.20e6	inactive
